Test results reported in article PMC10942119, “S-nitrosylation of a receptor-like cytoplasmic kinase regulates plant immunity” (Science Advances, 2024).
Substitutions are numbered along the chain they refer to. Results are given in words; binding and its absence hold for the method and conditions named. Binding seen in cells or lysates may run through a third protein. Some binding calls cover weakened binding; strength is not graded here. Sequences can lack the tags named with a protein.

Chains of the proteins cited; added tags and fusions are not shown. Residues count along the entry.
UniProt Q9FIJ0, residues 1-376: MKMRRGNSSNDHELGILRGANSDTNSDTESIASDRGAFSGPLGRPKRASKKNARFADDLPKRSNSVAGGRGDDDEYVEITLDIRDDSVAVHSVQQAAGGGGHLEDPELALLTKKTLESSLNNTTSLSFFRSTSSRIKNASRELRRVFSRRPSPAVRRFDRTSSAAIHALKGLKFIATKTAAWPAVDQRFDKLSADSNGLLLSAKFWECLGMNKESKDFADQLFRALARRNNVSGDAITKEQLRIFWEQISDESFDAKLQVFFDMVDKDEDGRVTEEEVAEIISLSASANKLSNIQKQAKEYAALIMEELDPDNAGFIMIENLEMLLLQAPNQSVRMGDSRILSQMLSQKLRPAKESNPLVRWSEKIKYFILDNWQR

Experiments:
[1] = biological target: T1, BIK1^C80A-HA (HA-tagged BIK1 C80A in transgenic Arabidopsis) (Arabidopsis (Col-0 cDNA)) (UniProt O48814); assay: co-IP; FLAG-RB-N transiently expressed 16 hours in protoplasts from BIK1-HA or BIK1^C80A-HA plants; treated or not with 1 uM flg22, 10 uM GSNO or 200 uM cPTIO for 15 min; immunoprecipitation with anti-HA agarose, anti-FLAG immunoblot
T1 sequence: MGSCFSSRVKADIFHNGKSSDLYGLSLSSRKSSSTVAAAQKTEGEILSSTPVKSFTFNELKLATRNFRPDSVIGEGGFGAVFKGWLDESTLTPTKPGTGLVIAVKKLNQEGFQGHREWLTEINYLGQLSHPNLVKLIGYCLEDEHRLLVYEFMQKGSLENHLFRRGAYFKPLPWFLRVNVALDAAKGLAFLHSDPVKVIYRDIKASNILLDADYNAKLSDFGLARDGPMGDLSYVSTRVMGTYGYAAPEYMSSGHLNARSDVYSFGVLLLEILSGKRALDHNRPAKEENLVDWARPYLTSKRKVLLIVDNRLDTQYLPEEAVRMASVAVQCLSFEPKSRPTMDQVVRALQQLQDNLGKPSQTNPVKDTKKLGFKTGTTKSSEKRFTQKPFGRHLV

[2] = biological target: T2, BIK1-HA (HA-tagged BIK1 in transgenic Arabidopsis) (Arabidopsis (Col-0 cDNA)) (UniProt O48814); assay: as above
T2 sequence: T1 sequence with A80C

binding [1]: binds | binding [2]: binds
Substance: FLAG-RBOHD-N (FLAG-tagged RBOHD N terminus) (from UniProt Q9FIJ0 1-376) (domain or fragment)
